Data: the supplement of paper PMC10338343
± gives the standard deviation. This is one part of the list. Many entries were measured with a wide error.

tested on: EfPiwi piRISC loaded with L1MC piRNA (26 nt); experiment: pre-steady-state target cleavage rate (min^-1); guide: L1MC piRNA 5'p-UAACUAAAUACUAUGCAAGCUGUAGG; MIWI and MILI are mouse PIWI proteins and EfPiwi is from a freshwater sponge; tags in brackets are library labels; higher = faster piRNA-guided slicing of the target; conditions: auxiliary factor: none (no Gtsf1)
In short: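 In this Cleave-'n-Seq assay, uncleaved targets were sequenced and normalised to depth and to weakly complementary targets. They came from a transcribed, DNA-blocked target RNA library […] mixed with 1 nM active affinity-purified piRISC carrying one synthetic guide, with or without 500 nM GTSF1 partner protein, in HEPES–potassium acetate buffer at 33 °C for 0–8 or 0–960 min. After three trials were pooled and k3 was capped at 0.0001 min^-1, the pre-steady-state cleavage rate was obtained from a burst-and-steady-state fit.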

Sequence | pre-steady-state target cleavage rate
UCCUGGAUCAGCUAGCAUAGUAAUUAGUUA | 0.000531 ± 0.012
UCCUGGAUGUGCUUGCAUAGUAUAAAGUUA | 0.00115 ± 0.0092
UCCUCCAACAGCUUGCAUAGAAUUUAGUUA | 0.00116 ± 0.0055
UCCUGGAUGAGCUUGCAUAGUUUUUAGAAA | 0.00023 ± 0.038
UCCUGGUACAGCUUGCAUAGUAUAUUAGUUA | 0.00112 ± 0.012
UCCUGCUACAGCUUGCAUACUAUUUACUUA | 0.00015 ± 0.047
UCCUGGAUCAGCUUGCAUAGUAUUUUCAUA | 0.000312 ± 0.023
